Laboratory results reported in article PMC9925322.
No constants are given. Whether binding was seen depends on the method and setting. Binding seen in cells or lysates may run through a third protein. Some binding calls cover weakened binding; strength is not graded here. Tags and fused reporters may be left off the sequences shown.

T1: Flag-PTP4A1 (protein tyrosine phosphatase type IVA 1) (UniProt Q93096)
T1 sequence: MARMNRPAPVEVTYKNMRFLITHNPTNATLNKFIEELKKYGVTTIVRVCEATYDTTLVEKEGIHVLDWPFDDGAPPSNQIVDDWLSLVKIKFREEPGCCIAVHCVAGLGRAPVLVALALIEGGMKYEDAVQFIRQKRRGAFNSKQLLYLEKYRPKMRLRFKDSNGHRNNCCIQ

B1: HA-CREBH(F), the inactive form of cyclic adenosine monophosphate-responsive element-binding protein H (protein, UniProt Q68CJ9 1-461)
chain: MNTDLAAGKMASAACSMDPIDSFELLDLLFDRQDGILRHVELGEGWGHVKDQQVLPNPDSDDFLSSILGSGDSLPSSPLWSPEGSDSGISEDLPSDPQDTPPRSGPATSPAGCHPAQPGKGPCLSYHPGNSCSTTTPGPVIQVPEASVTIDLEMWSPGGRICAEKPADPVDLSPRCNLTVKDLLLSGSSGDLQQHHLGASYLLRPGAGHCQELVLTEDEKKLLAKEGITLPTQLPLTKYEERVLKKIRRKIRNKQSAQESRKKKKEYIDGLETRMSACTAQNQELQRKVLHLEKQNLSLLEQLKKLQAIVVQSTSKSAQTGTCVAVLLLSFALIILPSISPFGPNKTESPGDFAPVRVFSRTLHNDAASRVAADAVPGSEAPGPRPEADTTREESPGSPGADWGFQDTANLTNSTEELDNATLVLRNATEGLGQVALLDWVAPGPSTGSGRAGLEAAGDEL
B2: peroxisome proliferator-activated receptor α (PPARα) (protein, UniProt Q07869 1-468)
chain: MVDTESPLCPLSPLEAGDLESPLSEEFLQEMGNIQEISQSIGEDSSGSFGFTEYQYLGSCPGSDGSVITDTLSPASSPSSVTYPVVPGSVDESPSGALNIECRICGDKASGYHYGVHACEGCKGFFRRTIRLKLVYDKCDRSCKIQKKNRNKCQYCRFHKCLSVGMSHNAIRFGRMPRSEKAKLKAEILTCEHDIEDSETADLKSLAKRIYEAYLKNFNMNKVKARVILSGKASNNPPFVIHDMETLCMAEKTLVAKLVANGIQNKEAEVRIFHCCQCTSVETVTELTEFAKAIPGFANLDLNDQVTLLKYGVYEAIFAMLSSVMNKDGMLVAYGNGFITREFLKSLRKPFCDIMEPKFDFAMKFNALELDDSDISLFVAAIICCGDRPGLLNVGHIEKMQEGIVHVLRLHLQSNHPDDIFLFPKLLQKMADLRQLVTEHAQLVQIIKKTESDAALHPLLQEIYRDMY

Molecular target: T1, Flag-PTP4A1 (protein tyrosine phosphatase type IVA 1)
Experiment: co-IP; HEK293T cells co-transfected; lysates immunoprecipitated with anti-Flag antibody overnight at 4 °C, protein G-Sepharose beads 2 h at 4 °C; Western blot

| Binder | binding |
| --- | --- |
| B1 | binds |
| B2 | no binding |
